Results are given in words; binding and its absence hold for the method and conditions named. In cells and extracts the contact can be indirect. Some binding calls cover weakened binding; strength is not graded here. Tags and fused reporters may be left off the sequences shown.
Columns and labels:
[1] = target: T1, E6TP1-C-194 (myc-tagged C-terminal 194 aa of E6TP1) (human) (UniProt O43166); assay: co-immunoprecipitation from Cos-7 cells: anti-myc 9E10 IP, anti-FLAG Western blot
T1 sequence: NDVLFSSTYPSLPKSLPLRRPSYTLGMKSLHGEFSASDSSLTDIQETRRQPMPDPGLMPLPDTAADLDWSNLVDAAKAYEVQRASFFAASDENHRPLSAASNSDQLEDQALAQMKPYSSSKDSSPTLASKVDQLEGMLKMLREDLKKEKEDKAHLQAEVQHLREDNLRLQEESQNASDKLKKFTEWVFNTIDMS

Sequences of proteins named here, by UniProt entry; tags and fusion partners are left off. A change or cut given only in a name is not applied to a line headed by its entry. Residues count along the entry.
UniProt P03126: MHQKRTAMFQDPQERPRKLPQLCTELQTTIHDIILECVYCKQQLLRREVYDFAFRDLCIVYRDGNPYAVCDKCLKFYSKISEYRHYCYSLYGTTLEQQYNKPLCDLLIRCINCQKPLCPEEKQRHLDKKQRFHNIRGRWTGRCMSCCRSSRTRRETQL
GST-HPV16 E6: residues 8-158 of P03126
UniProt P06463: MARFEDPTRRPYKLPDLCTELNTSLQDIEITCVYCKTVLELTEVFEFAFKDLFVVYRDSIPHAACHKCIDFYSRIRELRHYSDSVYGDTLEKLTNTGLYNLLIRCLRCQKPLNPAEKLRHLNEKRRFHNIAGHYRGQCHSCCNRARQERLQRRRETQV

[2] = target: T1, E6TP1-C-194 (myc-tagged C-terminal 194 aa of E6TP1) (human); assay: co-immunoprecipitation from 293T cells
GST-HPV16 E6 (HPV16) [3] = target: GST-HPV16 E6 (HPV16) (UniProt P03126); assay: pull-down of in vitro translated 35S-labelled protein on GST-HPV16 E6 (FIG. 3B)
HPV16 E6 protein (HPV16) [4] = target: HPV16 E6 protein (HPV16) (UniProt P03126); assay: in vitro GST pull-down
HPV18 E6 protein (HPV18) [5] = target: HPV18 E6 protein (HPV18) (UniProt P06463); assay: in vitro GST pull-down
HPV16 E6 protein (HPV16) [6] = target: HPV16 E6 protein (HPV16) (UniProt P03126); assay: GST pull-down of in vitro translated 35S-labelled E6, SDS-PAGE and fluorography
HPV18 E6 protein (HPV18) [7] = target: HPV18 E6 protein (HPV18) (UniProt P06463); assay: as above
HPV16 E6 protein (HPV16) [8] = target: HPV16 E6 protein (HPV16) (UniProt P03126); assay: GST pull-down of in vitro translated 35S-labelled E6 (FIG. 3A)
HPV18 E6 protein (HPV18) [9] = target: HPV18 E6 protein (HPV18) (UniProt P06463); assay: as above
GST-HPV16 E6 (HPV16) [10] = target: GST-HPV16 E6 (HPV16) (UniProt P03126); assay: pull-down on GST-HPV16 E6 (FIG. 3B)
GST-HPV16 E6 (HPV16) [11] = target: GST-HPV16 E6 (HPV16) (UniProt P03126); assay: in vitro pull-down with truncations of E6TP1α
GST-HPV16 E6 (HPV16) [12] = target: GST-HPV16 E6 (HPV16) (UniProt P03126); assay: in vitro pull-down

Measured: binding

FLAG-tagged HPV16 E6 (from UniProt P03126 9-158)
binds: [1] | [2]

E6TP1α (full length E6-targeted protein 1, alpha isoform) (from UniProt O43166 1-1804)
binds: GST-HPV16 E6 (HPV16) [3]

B1: GST-E6TP1-C-378 (GST fusion protein of the C-terminal 378 residues of E6TP1) (protein)
chain: SSRHSASPVVFTSARSSPKEELHPAAPSQLAPSFSSSSSSSSGPRSFYPRQGATSKYLIGWKKPEGTINSVGFMDTRKRHQSDGNEIAHTRLRASTRDLRASPKPTSKSTIEEDLKKLIDLESPTPESQKSFKFHALSSPQSPFPSTPTSRRALHRTLSDESIYNSQREHFFTSRASLLDQALPNDVLFSSTYPSLPKSLPLRRPSYTLGMKSLHGEFSASDSSLTDIQETRRQPMPDPGLMPLPDTAADLDWSNLVDAAKAYEVQRASFFAASDENHRPLSAASNSDQLEDQALAQMKPYSSSKDSSPTLASKVDQLEGMLKMLREDLKKEKEDKAHLQAEVQHLREDNLRLQEESQNASDKLKKFTEWVFNTIDMS
binds: HPV16 E6 protein (HPV16) [4] | HPV18 E6 protein (HPV18) [5] | HPV16 E6 protein (HPV16) [6] | HPV18 E6 protein (HPV18) [7] | HPV16 E6 protein (HPV16) [8] | HPV18 E6 protein (HPV18) [9]

B2: pGAD10 two-hybrid clone encoding the 194 carboxyl terminal amino acid residues of E6TP1 (other)
chain: NDVLFSSTYPSLPKSLPLRRPSYTLGMKSLHGEFSASDSSLTDIQETRRQPMPDPGLMPLPDTAADLDWSNLVDAAKAYEVQRASFFAASDENHRPLSAASNSDQLEDQALAQMKPYSSSKDSSPTLASKVDQLEGMLKMLREDLKKEKEDKAHLQAEVQHLREDNLRLQEESQNASDKLKKFTEWVFNTIDMS
notes: also called set of eleven identical strongly positive clones
binds: GST-HPV16 E6 (HPV16) [10] | GST-HPV16 E6 (HPV16) [3] | GST-HPV16 E6 (HPV16) [11] | GST-HPV16 E6 (HPV16) [12]

B3: E6TP1-C-378 (myc-tagged C-terminal 378 aa of E6TP1) (protein)
chain: SSRHSASPVVFTSARSSPKEELHPAAPSQLAPSFSSSSSSSSGPRSFYPRQGATSKYLIGWKKPEGTINSVGFMDTRKRHQSDGNEIAHTRLRASTRDLRASPKPTSKSTIEEDLKKLIDLESPTPESQKSFKFHALSSPQSPFPSTPTSRRALHRTLSDESIYNSQREHFFTSRASLLDQALPNDVLFSSTYPSLPKSLPLRRPSYTLGMKSLHGEFSASDSSLTDIQETRRQPMPDPGLMPLPDTAADLDWSNLVDAAKAYEVQRASFFAASDENHRPLSAASNSDQLEDQALAQMKPYSSSKDSSPTLASKVDQLEGMLKMLREDLKKEKEDKAHLQAEVQHLREDNLRLQEESQNASDKLKKFTEWVFNTIDMS
binds: GST-HPV16 E6 (HPV16) [10] | GST-HPV16 E6 (HPV16) [3]

Source: patent publication US6440696 (NEW ENGLAND MEDICAL CENTER, dated 2002)
